Data as given in PubChem BioAssay AID652272 (Drosophila RNAi Screening Center, 2013)
In all, the deposit lists about 21,000 reagents; shown is a random part of those with a known target gene and a result. Over the whole deposit, 503 (2.4%) got an active call. 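Raw plate light values, not normalised; calls rest on replicate z-scores that were not deposited; hits include reporter decreases as well as increases.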 A plus sign joins genes that one reagent is predicted to hit. Not stated in the record: the amount of reagent, the time to read-out.

Purpose: 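Finding fly genes that regulate Hedgehog signal transduction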 (primary screen)
Cells: Drosophila clone 8 (Cl8) cells
Knock-down reagent: long dsRNA against Drosophila genes
Measurement: 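Firefly light from a Hedgehog-responsive ptc promoter reporter and Renilla reference light, both read on a plate reader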
Reading the numbers: firefly Hh reporter signal: higher = more ptc reporter light; Renilla reference signal: higher = more Renilla control light
Active means: 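Called a hit if the two-replicate mean z-score lies below -2 or above +3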
Calls: active = hit: reporter lowered or raised; inactive = not a hit

predicted target,dsRNA,"firefly Hh reporter signal, replicate 1","firefly Hh reporter signal, replicate 2","firefly Hh reporter signal, replicate 3","Renilla reference signal, replicate 1","Renilla reference signal, replicate 2",call
RPA2 (Replication protein A2),DRSC03184,76231,61904,,3109,2580,inactive
Hsp67Ba (Heat shock gene 67Ba),DRSC11191,40768,30277,44629,3497,3476,inactive
CG18609,DRSC06775,95028,67575,,2348,4680,inactive
nes (nessy),DRSC11375,71995,1.10e5,,2544,2631,inactive
CG2915,DRSC06842,73949,50466,,3665,2307,inactive
CG6565,DRSC02970,1.83e5,65802,,7056,2391,inactive
CG11413 + CG4622,DRSC04109,1.00e5,1.11e5,,1850,7808,inactive
Antdh (Antennal dehydrogenase),DRSC20307,66198,1.61e5,,1648,6640,inactive
CG32473,DRSC14352,1.03e5,82832,,2748,1992,inactive
CG32473,DRSC16446,1.97e5,1.10e5,,7629,2618,inactive
Ubc6 (Ubiquitin conjugating enzyme 6),DRSC12370,1.05e5,75414,,6065,4481,active
CG6220,DRSC06969,84678,53019,,2518,4330,inactive
Polr1C (RNA polymerase I and III subunit C),DRSC02719,88872,38987,,4695,2368,inactive
Glys (Glycogen synthase),DRSC16130,1.43e5,1.17e5,,5857,4556,inactive
CG16749,DRSC15146,78555,1.16e5,,2236,2977,inactive
"Fis1 (Fission, mitochondrial 1)",DRSC07772,77100,36952,,3000,3234,inactive
Mhcl (Myosin heavy chain-like),DRSC13130,44512,1.86e5,,8561,3114,inactive
Mhcl (Myosin heavy chain-like),DRSC14216,79820,83377,,2801,5657,inactive
Mhcl (Myosin heavy chain-like),DRSC16753,83028,72020,,2659,4896,inactive
"Pka-R1 (Protein kinase, cAMP-dependent, regulatory subunit type 1)",DRSC11674,46413,38449,,2417,2092,inactive
"Pka-R1 (Protein kinase, cAMP-dependent, regulatory subunit type 1)",DRSC11875,1.06e5,75817,,4064,2712,inactive
CG43190,DRSC05316,1.01e5,2.17e5,,3033,9059,inactive
Dtg (Dpp target gene),DRSC15998,1.41e5,1.21e5,,5968,4512,inactive
CG3492,DRSC04373,97543,50768,,4185,2080,inactive
CG13065,DRSC09948,1.14e5,,,5203,3392,inactive
CG17764,DRSC18135,51248,1.34e5,,1556,4867,inactive
CG8252,DRSC07126,78726,37344,,2573,1448,inactive
mkg-p (monkey king protein),DRSC10777,71168,51306,,4169,2073,inactive
asp (abnormal spindle),DRSC16903,1.04e5,63729,,4976,2804,inactive
CG4629,DRSC00659,1.40e5,1.38e5,,3380,3336,inactive
CG10064,DRSC09689,43318,47810,,5170,3233,inactive
CG9389,DRSC11857,60435,61028,,2512,2740,inactive
Blm (Bloom syndrome helicase),DRSC16911,1.47e5,89317,,6505,3724,inactive
CG18599,DRSC15357,7.39e5,7.94e5,1.52e5,46156,6544,inactive
Lnk,DRSC16729,80470,95140,,1721,2705,inactive
Ptpmeg (Protein tyrosine phosphatase Meg),DRSC08684,57491,66720,,3161,3128,inactive
Mgat3,DRSC01305,5.12e5,1.89e5,,25386,7298,inactive
CSN4 (COP9 signalosome subunit 4),DRSC07350,1.10e5,57541,,2267,4608,inactive

Active calls, among the entries above:
predicted target,dsRNA,"firefly Hh reporter signal, replicate 1","firefly Hh reporter signal, replicate 2","firefly Hh reporter signal, replicate 3","Renilla reference signal, replicate 1","Renilla reference signal, replicate 2",call
Ubc6 (Ubiquitin conjugating enzyme 6),DRSC12370,1.05e5,75414,,6065,4481,active

The list goes on.
predicted target,dsRNA,"firefly Hh reporter signal, replicate 1","firefly Hh reporter signal, replicate 2","firefly Hh reporter signal, replicate 3","Renilla reference signal, replicate 1","Renilla reference signal, replicate 2",call
CG17104,DRSC02573,78173,61323,,3301,2631,inactive
eEF5 (eukaryotic translation elongation factor 5),DRSC04681,72881,76728,,1568,7337,inactive
CG12862,DRSC06202,73434,44300,,2208,3830,inactive
CG6707,DRSC10697,3021,44037,65209,3428,4586,inactive
CG32452,DRSC11581,4.17e5,,,9517,,inactive
MRG15 (MORF-related gene 15),DRSC16731,82501,82864,,3473,3200,inactive
CG43218,DRSC11475,2.58e5,,,6229,,inactive
Rpt4R (Regulatory particle triple-A ATPase 4-related),DRSC10791,1954,69632,79753,6730,5884,inactive
Usp14 (Ubiquitin specific protease 14),DRSC02853,1.13e5,77224,,4605,3584,inactive
CG9522,DRSC20197,76796,1.49e5,,2182,5611,inactive
CG3815,DRSC18324,1.36e5,1.01e5,,3360,2433,inactive
CG13869 + CG11099,DRSC06428,99683,60208,,3029,4652,inactive
Rlip (Ral interacting protein),DRSC16828,5.70e5,1.02e5,,26919,2980,inactive
CG31862,DRSC01245,4.57e5,2.73e5,,17242,12989,inactive
CG15646,DRSC19682,55888,2.50e5,,2205,10070,inactive
CG34176,DRSC00435,1.20e5,79972,,3474,6888,inactive
CG31007,DRSC14029,4.36e5,1.79e5,,23218,3861,inactive
wol (wollknaeuel),DRSC03077,86800,92017,,3500,3968,inactive
CSN7 (COP9 signalosome subunit 7),DRSC06807,85893,61879,,3170,2256,inactive
CSN7 (COP9 signalosome subunit 7),DRSC06808,68475,59761,,1677,4492,inactive
